Reference: patent US20180177890A1 (priority 2015, published 2018)

Assay: general procedure: solution-phase peptide synthesis; 2-(7-azobenzotriazole)-N,N,N',N'-tetramethyluronium hexafluorophosphate (HATU)
Details: for conjugation yield: conjugation step

Row | Substance | step yield (coupling step) [%] | step yield (late stage modification step) [%] | further results
1 | (S)-tert-butyl 2-((2R,3R)-3-((S)-1-((5S,8S,11S,12R)-11-((S)-sec-butyl)-1-(9H-fluoren-9-yl)-5,8-diisopropyl-12-methoxy-4,10-dimethyl-3,6,9-trioxo-2-oxa-4,7,10-triazatetradecan-14-oyl)pyrrolidin-2-yl)-3-methoxy-2-methylpropanamido)-3-(2-fluorophenyl)propanoate | 96.5 | – | –
2 | (S)-tert-butyl 2-((2R,3R)-3-((1S,3S,5S)-2-((5S,8S,11S,12R)-11-sec-butyl-1-(9H-fluoren-9-yl)-5,8-diisopropyl-12-methoxy-4,10-dimethyl-3,6,9-trioxo-2-oxa-4,7,10-triazatetradecane)-2-azabicyclo[3.1.0]hexan-3-yl)-3-methoxy-2-methylpropanamido)-3-(2-chlorophenyl)propanoat | 53.1 | – | –
3 | (S)-2-((2R,3R)-3-((S)-5-((3R,4S,5S)-4-((S)—N,3-dimethyl-2-((S)-3-methyl-2-(methylamino)butanamido)butanamido)-3-methoxy-5-methylheptanoyl)-5-azaspiro[2.4]heptan-6-yl)-3-methoxy-2-methylpropanamido)-3-(2-fluorophenyl)propanoic acid | – | 96 | –
4 | (S)-2-((2R,3R)-3-((2S,5S)-1-((3R,4S,5S)-4-((S)—N,3-dimethyl-2-((S)-3-methyl-2-(methylamino)butanamido)butanamido)-3-methoxy-5-methylheptanoyl)-5-methylpyrrolidin-2-yl)-3-methoxy-2-methylpropanamido)-3-phenylpropanoic acid | – | 23 | –
5 | (S)-tert-butyl 2-((2R,3R)-3-((S)-1-((5S,8S,11S,12R)-11-((S)-sec-butyl)-1-(9H-fluoren-9-yl)-5,8-diisopropyl-12-methoxy-4,10-dimethyl-3,6,9-trioxo-2-oxa-4,7,10-triazatetradecan-14-oyl)-4-methylenepyrrolidin-2-yl)-3-methoxy-2-methylpropanamido)-3-phenylpropanoate | 64.7 | – | –
6 | (S)-2-((2R,3R)-3-((1S,3S,5S)-2-((3R,4S,5S)-4-((S)—N,3-dimethyl-2-((S)-3-methyl-2-(methylamino)butanamido)butanamido)-3-methoxy-5-methylheptanoyl)-2-azabicyclo[3.1.0]hexan-3-yl)-3-methoxy-2-methylpropanamido)-3-phenylpropanoic acid | – | 22.7 | –
7 | (S)-2-((2R,3R)-3-((2S,5S)-1-((3R,4S,5S)-4-((S)-2-((S)-2-(6-(2,5-dioxo-2,5-dihydro-1H-pyrrol-1-yl)-N-methylhexanamido)-3-methylbutanamido)-N,3-dimethylbutanamido)-3-methoxy-5-methylheptanoyl)-5-methylpyrrolidin-2-yl)-3-methoxy-2-methylpropanamido)-3-phenylpro | – | – | conjugation yield: 30.9%
8 | (S)-2-((2R,3R)-3-((S)-1-((3R,4S,5S)-4-((S)—N,3-dimethyl-2-((S)-3-methyl-2-(methylamino)butanamido)butanamido)-3-methoxy-5-methylheptanoyl)pyrrolidin-2-yl)-3-methoxy-2-methylpropanamido)-3-(4-fluorophenyl)propanoic acid | – | 25.2 | –
9 | (S)-2-((2R,3R)-3-((S)-1-((3R,4S,5S)-4-((S)—N,3-dimethyl-2-((S)-3-methyl-2-(methylamino)butanamido)butanamido)-3-methoxy-5-methylheptanoyl)pyrrolidin-2-yl)-3-methoxy-2-methylpropanamido)-3-(2-fluorophenyl)propanoic acid | – | 28.4 | –
10 | (S)-2-((2R,3R)-3-((1S,3S,5S)-2-((3R,4S,5S)-4-((S)—N,3-dimethyl-2-((S)-3-methyl-2-(methylamino)butanamido)butanamido)-3-methoxy-5-methylheptanoyl)-2-azabicyclo[3.1.0]hexan-3-yl)-3-methoxy-2-methylpropanamido)-3-(2-fluorophenyl)propanoic acid | – | 20 | –
11 | (S)-2-((2R,3R)-3-((S)-1-((3R,4S,5S)-4-((S)—N,3-dimethyl-2-((S)-3-methyl-2-(methylamino)butanamido)butanamido)-3-methoxy-5-methylheptanoyl)-4-methylenepyrrolidin-2-yl)-3-methoxy-2-methylpropanamido)-3-phenylpropanoic acid | – | 11.9 | –
12 | (S)-2-((2R,3R)-3-((1S,3S,5S)-2-((3R,4S,5S)-4-((S)-2-((S)-2-(6-(2,5-dioxo-2,5-dihydro-1H-pyrrol-1-yl)-N-methylhexanamido)-3-methylbutanamido)-N,3-dimethylbutanamido)-3-methoxy-5-methylheptanoyl)-2-azabicyclo[3 0.1.0]hexan-3-yl)-3-methoxy-2-methylpropanamido)-3-phen | – | – | conjugation yield: 42%
13 | (S)-tert-butyl 2-((2R,3R)-3-((S)-5-((5S,8S,11S,12R)-11-((S)-sec-butyl)-1-(9H-fluoren-9-yl)-5,8-diisopropyl-12-methoxy-4,10-dimethyl-3,6,9-trioxo-2-oxa-4,7,10-triazatetradecan-14-oyl)-5-azaspiro[2.4]heptan-6-yl)-3-methoxy-2-methylpropanamido)-3-(2-fluorophenyl)propan | 53.4 | – | –
14 | (S)-2-((2R,3R)-3-((2S,4S)-1-((3R,4S,5S)-4-((S)—N,3-dimethyl-2-((S)-3-methyl-2-(methylamino)butanamido)butanamido)-3-methoxy-5-methylheptanoyl)-4-fluoropyrrolidin-2-yl)-3-methoxy-2-methylpropanamido)-3-phenylpropanoic acid | – | 21.5 | –
15 | (S)-tert-butyl 2-((2R,3R)-3-((1S,3S,5S)-2-((5S,8S,11S,12R)-11-((S)-sec-butyl)-1-(9H-fluoren-9-yl)-5,8-diisopropyl-12-methoxy-4,10-dimethyl-3,6,9-trioxo-2-oxa-4,7,10-triazatetradecan-14-oyl)-2-azabicyclo[3.1.0]hexan-3-yl)-3-methoxy-2-methylpropanamido)-3-phenylp | 54.9 | – | –
16 | (S)-methyl 2-((2R,3R)-3-((S)-1-((5S,8S,11S,12R)-11-((S)-sec-butyl)-5,8-diisopropyl-12-methoxy-4,10-dimethyl-3,6,9-trioxo-1-phenyl-2-oxa-4,7,10-triazatetradecan-14-oyl)pyrrolidin-2-yl)-3-methoxy-2-methylpropanamido)-3-(4-fluorophenyl)propanoate | 84.6 | – | –
17 | (S)-3-(2-chlorophenyl)-2-((2R,3R)-3-((1S,3S,5S)-2-((3R,4S,5S)-4-((S)—N,3-dimethyl-2-((S)-3-methyl-2-(methylamino)butanamido)butanamido)-3-methoxy-5-methylheptanoyl)-2-azabicyclo[3.1.0]hexan-3-yl)-3-methoxy-2-methylpropanamido)propanoic acid | – | 35.7 | –
18 | (S)-2-((2R,3R)-3-((S)-1-((3R,4S,5S)-4-((S)-2-((S)-2-(6-(2,5-dioxo-2,5-dihydro-1H-pyrrol-1-yl)-N-methylhexanamido)-3-methylbutanamido)-N,3-dimethylbutanamido)-3-methoxy-5-methylheptanoyl)-4-methylenepyrrolidin-2-yl)-3-methoxy-2-methylpropanamido)-3-phenylpropanoic acid | – | – | conjugation yield: 4.6%
